Measured values as given in PubChem BioAssay AID296 (DTP/NCI, 2004).
The list is a part of this screen's results and no random one: it covers a few groups of compounds. Other doses and runs of a compound may be missing. T/C is the treated group as % of the vehicle group. Schedules are NCI's codes, read here as Q, the interval in days (D) or hours (H), X, the number of doses. Some T/C values are negative: the treated tumours shrank. Some entries hold several experiments; the values are given in rising order. Some T/C values carry the count of animals alive at the toxicity check; without a count or a note in brackets, all were alive then. Some doses have a count of surviving animals in place of a T/C: the source files T/C as zero there, which appears to mark a toxic dose or a test without result, not a measured value. Counts of survivors are from the toxicity check, whose day is not always given; animals may have died later.

Tested on: MX-1 breast xenograft, nude mice, tumor weight T/C
Experiment: NCI In Vivo Anticancer Drug Screen. Data for tumor model Human Mammary Carcinoma MX-1 Xenograft (intrarenal inoculation) in NU/NU Swiss (nude) mice
Conditions: T/C endpoint: mean tumor weight change, higher T/C = larger tumour; for T/C: evaluated on day 11
Method: The antitumor activity of compounds was measured in mice bearing transplantable tumors. Survival or tumor size were measured and the results are expressed as the measurement made in the treated group (T) divided by the measurement made in the vehicle treated control group (C). The tumor model used in this assay is Human Mammary Carcinoma MX-1 Xenograft (intrarenal inoculation) in NU/NU Swiss (nude) mice

[1] = dose: 75.0 mg/kg/injection, schedule: Q04DX003 (sc), vehicle: water
[2] = dose: 150.0 mg/kg/injection, schedule: Q04DX003 (sc), vehicle: water
[3] = dose: 12.5 mg/kg/injection, schedule: Q01DX010 (sc), vehicle: saline with Tween-80
[4] = dose: 100.0 mg/kg/injection, schedule: Q04DX003 (sc), vehicle: Klucel (hydroxypropylcellulose) (HPC)

NC1CCCCC1.NP(=O)(O)N(CCCl)CCCl
T/C (dose: 18.75 mg/kg/injection, schedule: Q04DX003 (sc), vehicle: water): 115 % of control
T/C (dose: 37.5 mg/kg/injection, schedule: Q04DX003 (sc), vehicle: water): 41, 72, 85 % of control
T/C [1]: -21 [4 of 6 alive on day 11], 9, 90 % of control
survivor count [1]: 0 of 6 on day 11
T/C [2]: -91 [4 of 6 alive on day 11], 1 [5 of 6 alive on day 11], 49 % of control
survivor count [2]: 0 of 6 on day 11
survivor count (dose: 300.0 mg/kg/injection, schedule: Q04DX003 (sc), vehicle: water): 0 of 6 on day 11
survivor count (dose: 600.0 mg/kg/injection, schedule: Q04DX003 (sc), vehicle: water): 0 of 6 on day 11

CC1=CC(=O)C(N(CCCl)CCCl)=CC1=O
T/C (dose: 0.75 mg/kg/injection, schedule: Q01DX010 (sc), vehicle: Klucel (hydroxypropylcellulose) (HPC)): 1 % of control
T/C (dose: 1.5 mg/kg/injection, schedule: Q01DX010 (sc), vehicle: Klucel (hydroxypropylcellulose) (HPC)): -69 [2 of 2 alive on day 11] and -52 % of control
T/C (dose: 3.0 mg/kg/injection, schedule: Q01DX010 (sc), vehicle: Klucel (hydroxypropylcellulose) (HPC)): -89 % of control

Cc1ccc(N(CCBr)CCBr)cc1
T/C (dose: 18.75 mg/kg/injection, schedule: Q04DX003 (sc), vehicle: Klucel (hydroxypropylcellulose) (HPC)): 2 and 41 % of control
T/C (dose: 37.5 mg/kg/injection, schedule: Q04DX003 (sc), vehicle: Klucel (hydroxypropylcellulose) (HPC)): 2 [5 of 6 alive on day 11] and 12 % of control
T/C (dose: 75.0 mg/kg/injection, schedule: Q04DX003 (sc), vehicle: Klucel (hydroxypropylcellulose) (HPC)): -50 and 12 % of control [2 of 2 alive on day 11]
T/C (dose: 150.0 mg/kg/injection, schedule: Q04DX003 (sc), vehicle: Klucel (hydroxypropylcellulose) (HPC)): -100 and 9 % of control [4 of 6 alive on day 11]

ClCCN(CCCl)c1ccccc1
T/C (dose: 3.13 mg/kg/injection, schedule: Q01DX010 (sc), vehicle: saline with Tween-80): 1 and 21 % of control
T/C (dose: 6.25 mg/kg/injection, schedule: Q01DX010 (sc), vehicle: saline with Tween-80): -49 and -16 % of control
T/C [3]: -92 % of control
survivor count [3]: 1 of 3 on day 11
survivor count (dose: 25.0 mg/kg/injection, schedule: Q01DX010 (sc), vehicle: saline with Tween-80): 0 of 3 on day 11
T/C (dose: 50.0 mg/kg/injection, schedule: Q04DX003 (sc), vehicle: Klucel (hydroxypropylcellulose) (HPC)): -100 [2 of 3 alive on day 11] and -86 % of control
T/C [4]: -65 % of control [4 of 6 alive on day 11]
survivor count [4]: 0 of 3 on day 11
survivor count (dose: 200.0 mg/kg/injection, schedule: Q04DX003 (sc), vehicle: Klucel (hydroxypropylcellulose) (HPC)): 0 of 3 on day 11 and 0 of 6 on day 11
survivor count (dose: 400.0 mg/kg/injection, schedule: Q04DX003 (sc), vehicle: Klucel (hydroxypropylcellulose) (HPC)): 0 of 3 on day 11 and 0 of 6 on day 11

C[N+](CCCl)(CCCl)Cc1ccc([N+](=O)[O-])cc1
T/C (dose: 12.5 mg/kg/injection, schedule: Q04DX003 (sc), vehicle: saline): 53 and 105 % of control
T/C (dose: 25.0 mg/kg/injection, schedule: Q04DX003 (sc), vehicle: saline): 32, 51, 60 % of control
T/C (dose: 50.0 mg/kg/injection, schedule: Q04DX003 (sc), vehicle: saline): 3 % of control

O=NN(CCSCCCl)C(=O)NC1CCCCC1
T/C (dose: 300.0 mg/kg/injection, schedule: Q04DX003 (sc), vehicle: saline with Tween-80): -100 and 28 % of control
T/C (dose: 600.0 mg/kg/injection, schedule: Q04DX003 (sc), vehicle: saline with Tween-80): 7 % of control
